Source: US20020152485A1
These are yes or no findings as the source states them, for the method shown. Some entries that bind do so weakly or less than the wild type.

Chains of the proteins cited; added tags and fusions are not shown. Lines headed by an entry give the natural chain unless they say otherwise; changes in a name come on top. Residues count along the entry.
UniProt P04114, residues 28-4563: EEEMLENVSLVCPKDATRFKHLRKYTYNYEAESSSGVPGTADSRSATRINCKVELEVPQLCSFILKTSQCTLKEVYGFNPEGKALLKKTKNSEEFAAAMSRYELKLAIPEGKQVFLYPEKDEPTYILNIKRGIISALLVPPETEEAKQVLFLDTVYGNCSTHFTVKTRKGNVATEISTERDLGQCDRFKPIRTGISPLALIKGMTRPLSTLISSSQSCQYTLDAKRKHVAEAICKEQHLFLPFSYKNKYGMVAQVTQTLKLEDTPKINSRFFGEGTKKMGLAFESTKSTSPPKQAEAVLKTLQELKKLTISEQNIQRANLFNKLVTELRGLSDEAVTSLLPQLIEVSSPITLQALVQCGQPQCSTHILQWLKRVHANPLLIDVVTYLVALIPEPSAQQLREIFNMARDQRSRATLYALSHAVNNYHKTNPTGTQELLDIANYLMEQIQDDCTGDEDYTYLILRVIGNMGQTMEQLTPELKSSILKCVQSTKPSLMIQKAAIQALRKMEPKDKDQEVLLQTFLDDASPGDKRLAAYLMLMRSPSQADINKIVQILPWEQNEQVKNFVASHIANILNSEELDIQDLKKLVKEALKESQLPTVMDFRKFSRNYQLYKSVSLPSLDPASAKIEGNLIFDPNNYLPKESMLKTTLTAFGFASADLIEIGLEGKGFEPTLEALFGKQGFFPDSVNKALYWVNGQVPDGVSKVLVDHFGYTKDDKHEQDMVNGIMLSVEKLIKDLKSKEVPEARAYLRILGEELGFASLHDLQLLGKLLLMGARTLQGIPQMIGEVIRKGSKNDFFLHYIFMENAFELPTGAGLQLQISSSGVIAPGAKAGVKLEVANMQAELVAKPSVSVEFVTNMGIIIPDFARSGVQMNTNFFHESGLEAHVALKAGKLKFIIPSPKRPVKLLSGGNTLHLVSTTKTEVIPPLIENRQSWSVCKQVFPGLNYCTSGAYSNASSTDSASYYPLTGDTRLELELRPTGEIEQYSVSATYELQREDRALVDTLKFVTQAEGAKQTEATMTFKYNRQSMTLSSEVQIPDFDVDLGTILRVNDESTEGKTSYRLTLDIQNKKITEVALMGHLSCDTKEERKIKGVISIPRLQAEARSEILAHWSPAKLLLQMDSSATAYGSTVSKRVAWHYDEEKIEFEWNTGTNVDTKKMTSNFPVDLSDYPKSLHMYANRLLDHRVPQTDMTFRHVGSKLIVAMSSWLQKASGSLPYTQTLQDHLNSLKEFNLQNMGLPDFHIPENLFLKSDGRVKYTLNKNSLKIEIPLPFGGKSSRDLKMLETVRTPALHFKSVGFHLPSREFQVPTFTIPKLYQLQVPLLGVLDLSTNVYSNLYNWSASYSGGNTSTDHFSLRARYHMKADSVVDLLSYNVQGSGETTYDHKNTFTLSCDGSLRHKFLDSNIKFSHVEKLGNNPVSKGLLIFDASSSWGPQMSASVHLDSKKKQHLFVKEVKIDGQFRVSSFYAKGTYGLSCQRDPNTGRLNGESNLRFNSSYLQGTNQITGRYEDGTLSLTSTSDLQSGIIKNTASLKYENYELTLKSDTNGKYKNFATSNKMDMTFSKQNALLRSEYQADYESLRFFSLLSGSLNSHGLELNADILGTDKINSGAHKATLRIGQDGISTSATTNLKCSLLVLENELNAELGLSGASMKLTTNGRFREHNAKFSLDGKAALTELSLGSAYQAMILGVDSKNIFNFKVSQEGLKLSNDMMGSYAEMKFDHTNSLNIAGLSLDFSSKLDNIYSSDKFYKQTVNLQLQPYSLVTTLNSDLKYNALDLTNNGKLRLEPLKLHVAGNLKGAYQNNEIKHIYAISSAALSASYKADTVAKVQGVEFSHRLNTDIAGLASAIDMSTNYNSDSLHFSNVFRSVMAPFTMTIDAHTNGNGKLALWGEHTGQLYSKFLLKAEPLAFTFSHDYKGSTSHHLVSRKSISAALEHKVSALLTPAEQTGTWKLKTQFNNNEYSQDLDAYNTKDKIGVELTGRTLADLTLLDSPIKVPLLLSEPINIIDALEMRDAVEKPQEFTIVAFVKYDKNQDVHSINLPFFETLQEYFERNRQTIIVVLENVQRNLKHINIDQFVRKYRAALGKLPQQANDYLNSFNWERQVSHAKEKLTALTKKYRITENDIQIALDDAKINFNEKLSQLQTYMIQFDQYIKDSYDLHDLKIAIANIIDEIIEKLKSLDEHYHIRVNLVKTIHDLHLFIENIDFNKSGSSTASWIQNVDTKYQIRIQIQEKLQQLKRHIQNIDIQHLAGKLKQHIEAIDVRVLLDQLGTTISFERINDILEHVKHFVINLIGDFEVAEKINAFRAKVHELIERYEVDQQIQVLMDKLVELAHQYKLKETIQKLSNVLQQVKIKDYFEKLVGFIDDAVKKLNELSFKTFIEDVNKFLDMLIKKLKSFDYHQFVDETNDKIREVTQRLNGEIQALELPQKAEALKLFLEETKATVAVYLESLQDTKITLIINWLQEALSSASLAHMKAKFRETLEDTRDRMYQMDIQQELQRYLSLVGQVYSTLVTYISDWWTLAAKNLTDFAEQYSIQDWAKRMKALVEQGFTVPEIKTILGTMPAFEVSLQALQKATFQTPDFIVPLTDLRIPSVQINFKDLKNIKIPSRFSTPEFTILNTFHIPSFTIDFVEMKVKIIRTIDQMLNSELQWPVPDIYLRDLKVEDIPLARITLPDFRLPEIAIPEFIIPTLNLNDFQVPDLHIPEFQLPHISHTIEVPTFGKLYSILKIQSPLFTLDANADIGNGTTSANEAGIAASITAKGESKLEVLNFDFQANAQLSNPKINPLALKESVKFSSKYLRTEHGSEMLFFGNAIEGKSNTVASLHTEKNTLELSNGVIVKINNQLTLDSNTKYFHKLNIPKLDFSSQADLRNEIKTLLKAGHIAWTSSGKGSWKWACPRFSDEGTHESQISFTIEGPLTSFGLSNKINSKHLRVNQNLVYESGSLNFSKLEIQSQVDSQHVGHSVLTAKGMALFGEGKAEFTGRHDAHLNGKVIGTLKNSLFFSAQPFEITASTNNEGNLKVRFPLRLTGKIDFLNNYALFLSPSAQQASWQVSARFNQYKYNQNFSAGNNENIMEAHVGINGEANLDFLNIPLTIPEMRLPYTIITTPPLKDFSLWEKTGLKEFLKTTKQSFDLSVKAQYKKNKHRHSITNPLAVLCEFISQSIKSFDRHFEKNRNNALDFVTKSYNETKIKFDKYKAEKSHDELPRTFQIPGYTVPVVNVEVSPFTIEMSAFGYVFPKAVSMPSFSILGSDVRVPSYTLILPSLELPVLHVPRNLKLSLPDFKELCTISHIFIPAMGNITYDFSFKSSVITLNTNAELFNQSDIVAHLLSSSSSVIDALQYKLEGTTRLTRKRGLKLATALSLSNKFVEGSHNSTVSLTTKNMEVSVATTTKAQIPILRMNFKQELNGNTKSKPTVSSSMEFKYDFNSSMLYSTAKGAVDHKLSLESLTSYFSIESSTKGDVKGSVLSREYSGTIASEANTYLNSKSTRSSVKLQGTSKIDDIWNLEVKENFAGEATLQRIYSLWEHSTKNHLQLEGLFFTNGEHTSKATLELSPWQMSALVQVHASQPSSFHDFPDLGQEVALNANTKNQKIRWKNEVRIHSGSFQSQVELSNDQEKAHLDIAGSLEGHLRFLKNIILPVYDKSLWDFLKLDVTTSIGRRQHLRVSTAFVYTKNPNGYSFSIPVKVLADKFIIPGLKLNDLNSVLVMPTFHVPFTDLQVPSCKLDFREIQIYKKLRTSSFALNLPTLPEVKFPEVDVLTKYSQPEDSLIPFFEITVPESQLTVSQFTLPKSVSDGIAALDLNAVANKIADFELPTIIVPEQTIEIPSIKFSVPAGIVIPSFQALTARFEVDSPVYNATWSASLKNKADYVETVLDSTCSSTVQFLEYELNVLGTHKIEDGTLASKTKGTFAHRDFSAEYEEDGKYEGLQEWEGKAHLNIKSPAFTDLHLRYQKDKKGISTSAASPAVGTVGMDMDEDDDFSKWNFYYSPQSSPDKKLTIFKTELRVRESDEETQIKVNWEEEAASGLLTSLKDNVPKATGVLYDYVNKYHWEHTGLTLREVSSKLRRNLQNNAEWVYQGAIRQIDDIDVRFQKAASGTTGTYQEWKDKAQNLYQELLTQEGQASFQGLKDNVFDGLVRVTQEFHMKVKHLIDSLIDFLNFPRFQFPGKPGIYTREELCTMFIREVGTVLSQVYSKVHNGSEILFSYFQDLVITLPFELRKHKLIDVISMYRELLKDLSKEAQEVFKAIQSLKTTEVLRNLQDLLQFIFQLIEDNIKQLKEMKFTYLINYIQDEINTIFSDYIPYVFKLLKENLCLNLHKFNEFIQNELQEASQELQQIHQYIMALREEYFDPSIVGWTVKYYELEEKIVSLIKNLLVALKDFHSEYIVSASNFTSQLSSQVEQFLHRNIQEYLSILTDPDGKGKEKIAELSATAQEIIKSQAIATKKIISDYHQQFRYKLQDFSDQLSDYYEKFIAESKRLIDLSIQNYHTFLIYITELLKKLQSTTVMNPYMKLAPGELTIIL
UniProt P40222: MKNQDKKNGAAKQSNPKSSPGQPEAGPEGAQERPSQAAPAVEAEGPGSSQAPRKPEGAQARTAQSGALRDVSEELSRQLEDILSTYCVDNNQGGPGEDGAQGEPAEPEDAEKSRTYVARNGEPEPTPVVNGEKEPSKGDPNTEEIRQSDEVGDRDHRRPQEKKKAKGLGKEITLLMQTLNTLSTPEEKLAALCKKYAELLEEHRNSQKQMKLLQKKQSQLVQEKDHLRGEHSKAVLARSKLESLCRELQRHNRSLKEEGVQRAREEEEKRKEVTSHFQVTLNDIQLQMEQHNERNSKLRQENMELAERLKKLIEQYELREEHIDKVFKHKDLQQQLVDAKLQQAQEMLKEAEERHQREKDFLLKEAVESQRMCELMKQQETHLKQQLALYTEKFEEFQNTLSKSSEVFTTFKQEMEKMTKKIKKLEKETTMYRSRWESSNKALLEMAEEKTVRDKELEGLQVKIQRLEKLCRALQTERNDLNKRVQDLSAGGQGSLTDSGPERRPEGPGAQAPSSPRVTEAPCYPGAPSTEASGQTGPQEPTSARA

How the values were obtained:
[1] = target: native human low density lipoprotein (LDL) (human) (UniProt P04114); test: affinity coelectrophoresis (ACE): 125I-LBP-1 run through LDL cast in agarose
[2] = target: native human low density lipoprotein (LDL) (human) (UniProt P04114); test: ACE self-competition: fixed cold LDL and radiolabeled LBP-1, increasing cold recombinant LBP-1 (6-31 uM)
[3] = target: native human low density lipoprotein (LDL) (human) (UniProt P04114); test: plaque-lift expression screen of a rabbit aorta cDNA phage library; membranes incubated with native human LDL (4 ug/ml), detected with sheep anti-human LDL antibodies; phage-expressed protein
[4] = target: native human low density lipoprotein (LDL) (human) (UniProt P04114); test: affinity coelectrophoresis (ACE): 125I-LBP-3 run through LDL cast in agarose
[5] = target: native human low density lipoprotein (LDL) (human) (UniProt P04114); test: ACE self-competition: fixed cold LDL and radiolabeled LBP-3, increasing cold LBP-3

Measured: binding

recombinant rabbit LBP-1 (6-His tag) (from UniProt Q9CPW4 1-151)
binds: [1] | [2] | [3]

recombinant rabbit LBP-3 (6-His tag) (from UniProt P40222 1-546)
binds: [4] | [5] | [3]
